Experiment [1] deals with T1, Halo-C16orf87 (N-terminally Halo-tagged MHAP1) (human) (UniProt Q6PH81).
T1 sequence: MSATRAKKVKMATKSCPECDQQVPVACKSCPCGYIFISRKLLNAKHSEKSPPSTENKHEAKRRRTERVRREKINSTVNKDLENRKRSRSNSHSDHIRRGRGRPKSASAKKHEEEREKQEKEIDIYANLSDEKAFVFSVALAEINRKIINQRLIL
Nature of the experiment: cross-linking; XL-MS: Halo-MHAP1 affinity purification from HEK293T, three biological replicates; 5 mM DSSO added while the proteins were on the Magne HaloTag beads, 40 min at room temperature; AcTEV elution; XlinkX, FDR 0.01.

Amino acid sequences for entries named in this document (tags omitted).
UniProt Q92769: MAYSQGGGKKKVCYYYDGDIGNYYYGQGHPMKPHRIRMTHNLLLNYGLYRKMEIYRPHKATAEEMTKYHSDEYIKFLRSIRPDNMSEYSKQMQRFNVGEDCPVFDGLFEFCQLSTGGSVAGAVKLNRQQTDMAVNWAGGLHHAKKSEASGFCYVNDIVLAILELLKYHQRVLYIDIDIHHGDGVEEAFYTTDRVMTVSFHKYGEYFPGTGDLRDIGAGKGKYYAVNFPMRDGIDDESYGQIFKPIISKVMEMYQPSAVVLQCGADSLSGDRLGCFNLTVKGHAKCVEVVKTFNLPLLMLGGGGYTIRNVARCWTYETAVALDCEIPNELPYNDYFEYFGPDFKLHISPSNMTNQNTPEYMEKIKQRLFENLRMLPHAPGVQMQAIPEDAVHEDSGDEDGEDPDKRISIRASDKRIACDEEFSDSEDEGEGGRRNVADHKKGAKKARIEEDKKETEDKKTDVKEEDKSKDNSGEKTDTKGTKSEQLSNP

The next experiment has as its target T2, Halo-SIN3A (UniProt Q96ST3).
T2 sequence: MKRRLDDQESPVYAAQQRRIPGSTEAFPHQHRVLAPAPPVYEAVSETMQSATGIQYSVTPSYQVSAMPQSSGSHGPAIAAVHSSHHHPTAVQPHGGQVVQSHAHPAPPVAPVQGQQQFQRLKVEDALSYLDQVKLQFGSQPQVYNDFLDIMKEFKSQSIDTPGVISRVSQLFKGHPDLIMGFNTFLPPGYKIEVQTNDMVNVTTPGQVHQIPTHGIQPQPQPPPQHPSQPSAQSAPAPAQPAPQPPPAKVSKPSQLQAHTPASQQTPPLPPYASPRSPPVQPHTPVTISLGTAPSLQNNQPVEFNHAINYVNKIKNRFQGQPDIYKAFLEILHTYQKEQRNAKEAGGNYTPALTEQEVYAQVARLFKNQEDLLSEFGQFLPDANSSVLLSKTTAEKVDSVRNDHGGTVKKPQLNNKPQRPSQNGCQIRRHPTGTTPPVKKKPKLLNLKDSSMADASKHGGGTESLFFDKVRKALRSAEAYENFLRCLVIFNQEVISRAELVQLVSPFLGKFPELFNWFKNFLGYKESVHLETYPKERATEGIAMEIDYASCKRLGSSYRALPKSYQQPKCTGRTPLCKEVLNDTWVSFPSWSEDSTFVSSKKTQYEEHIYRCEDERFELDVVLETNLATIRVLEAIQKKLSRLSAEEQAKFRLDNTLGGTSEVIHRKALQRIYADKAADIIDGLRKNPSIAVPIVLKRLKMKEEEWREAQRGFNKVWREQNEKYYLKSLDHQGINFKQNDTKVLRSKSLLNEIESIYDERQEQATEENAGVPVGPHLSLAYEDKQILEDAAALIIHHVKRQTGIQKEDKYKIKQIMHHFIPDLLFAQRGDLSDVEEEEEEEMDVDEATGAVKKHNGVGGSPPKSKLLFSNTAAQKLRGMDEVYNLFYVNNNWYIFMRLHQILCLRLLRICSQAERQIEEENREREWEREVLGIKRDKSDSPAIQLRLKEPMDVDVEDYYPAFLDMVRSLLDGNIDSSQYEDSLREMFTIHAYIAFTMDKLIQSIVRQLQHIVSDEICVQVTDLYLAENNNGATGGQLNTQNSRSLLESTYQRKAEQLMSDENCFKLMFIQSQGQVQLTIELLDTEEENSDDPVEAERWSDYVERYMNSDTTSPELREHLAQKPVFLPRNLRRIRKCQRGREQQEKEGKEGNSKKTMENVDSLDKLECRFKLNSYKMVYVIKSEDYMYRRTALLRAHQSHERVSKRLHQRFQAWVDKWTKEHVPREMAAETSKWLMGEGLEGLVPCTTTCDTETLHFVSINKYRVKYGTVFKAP
The experiment can be described thus: pull-down; Halo pulldown from lysates of HEK293T cells co-transiently expressing SNAP-FLAG-C16orf87 and a Halo-tagged bait; eluates by SDS-PAGE and Western blot (anti-FLAG, anti-Halo).

Experiment [2] concerns the target HDAC2-Halo (human) (UniProt Q92769). Described as above.
The target in the next experiment is T3, Halo-MIER1b (human) (UniProt Q8N108).
T3 sequence: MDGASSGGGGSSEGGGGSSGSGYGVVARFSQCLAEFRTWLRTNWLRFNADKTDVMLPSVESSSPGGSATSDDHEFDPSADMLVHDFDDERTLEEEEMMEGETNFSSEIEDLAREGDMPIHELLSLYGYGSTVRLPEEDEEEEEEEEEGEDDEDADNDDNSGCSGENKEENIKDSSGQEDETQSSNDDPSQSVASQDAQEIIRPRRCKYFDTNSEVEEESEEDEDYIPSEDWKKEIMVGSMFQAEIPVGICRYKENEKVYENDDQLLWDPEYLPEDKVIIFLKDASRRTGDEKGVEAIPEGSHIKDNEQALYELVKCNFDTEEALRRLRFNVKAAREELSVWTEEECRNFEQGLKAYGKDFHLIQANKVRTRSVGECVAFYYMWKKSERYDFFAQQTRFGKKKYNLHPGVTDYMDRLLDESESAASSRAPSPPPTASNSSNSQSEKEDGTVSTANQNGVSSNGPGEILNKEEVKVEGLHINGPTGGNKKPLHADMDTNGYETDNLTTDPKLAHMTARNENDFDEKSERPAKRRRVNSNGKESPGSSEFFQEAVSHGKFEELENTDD
Described as above.

The target in the next experiment is T4, Halo-SUDS3 (UniProt Q9H7L9).
T4 sequence: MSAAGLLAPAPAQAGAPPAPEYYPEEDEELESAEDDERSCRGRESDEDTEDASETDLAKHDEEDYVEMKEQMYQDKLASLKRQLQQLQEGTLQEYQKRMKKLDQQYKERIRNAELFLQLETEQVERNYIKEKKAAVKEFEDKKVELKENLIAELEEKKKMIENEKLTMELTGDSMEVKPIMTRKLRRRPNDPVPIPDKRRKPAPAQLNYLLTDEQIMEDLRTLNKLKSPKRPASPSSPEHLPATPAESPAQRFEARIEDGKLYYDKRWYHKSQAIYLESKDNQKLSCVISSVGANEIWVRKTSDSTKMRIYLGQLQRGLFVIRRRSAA
The experiment is described as above.

Another experiment has as its target T5, Halo-SAP30 (UniProt O75446).
T5 sequence: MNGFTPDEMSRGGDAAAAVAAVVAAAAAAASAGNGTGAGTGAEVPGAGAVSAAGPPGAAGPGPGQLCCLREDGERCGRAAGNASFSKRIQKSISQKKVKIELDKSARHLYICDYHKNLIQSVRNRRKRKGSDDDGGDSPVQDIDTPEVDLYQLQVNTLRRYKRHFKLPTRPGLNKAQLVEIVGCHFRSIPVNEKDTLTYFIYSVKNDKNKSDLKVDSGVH
Described as above.

Experiment [3] deals with HDAC2-Halo (human) (UniProt Q92769). Nature of the experiment: FRET or BRET; acceptor photobleaching FRET (AP-FRET) in co-transiently transfected HEK293T cells; donor SNAP-Cell 505-Star on the SNAP tag, acceptor HaloTag TMR on the HaloTag; nuclei bleached at 561 nm.

No constants are given. Whether binding was seen depends on the method and setting. Binding seen in cells or lysates may run through a third protein. Some binding calls cover weakened binding; strength is not graded here. Where a sequence is shown, tags or fusion partners need not be part of it.

On to “HDAC2 (endogenous, co-purified with Halo-MHAP1) (from UniProt Q92769 1-488) (enzyme)”, for which, in experiment [1], the binding result was “binds”.

B1: SNAP-Flag-C16orf87 (protein, UniProt Q6PH81-1 1-154)
chain: T1 sequence
modifications: SNAP-Cell 505-Star ligand on the SNAP tag (AP-FRET)
On to B1, for which the binding entry with Halo-SIN3A is recorded as “no binding”; with HDAC2-Halo (human) [2], “binds”; with Halo-MIER1b (human), “binds”; in the experiment with Halo-SUDS3, “no binding”; in the experiment with Halo-SAP30, “no binding”; in the experiment with HDAC2-Halo (human) [3] it was “binds”.

The record behind these values is article doi:10.1101/2025.08.08.669391.
